PubChem BioAssay AID686937, Drosophila RNAi Screening Center, 2013
In all, the deposit lists about 23,000 reagents; shown is an unselected part of those that have a named target and a result. 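Reduced-secretion tags in replicate 1 do not always agree with the z-scores; no criterion for assigning the tags was given.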 Reagents against one gene are numbered here. Names joined by + are all predicted targets of the reagent. Further read-outs or replicates are left out here. The record does not give: the amount of reagent.

Aim: 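Genes in the fly needed for secretion of protein constitutively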 (primary screen)
System: Drosophila S2 cells expressing secreted horseradish peroxidase
Knock-down reagent: long dsRNA against Drosophila genes
Time to read-out: about 5.5 days (5 days dsRNA, then 12 h reporter induction)
Conditions: reporter expression induced after 5 days of dsRNA, read 12 h later; inducer not stated
Detection: 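After 5 days of dsRNA and 12 h of reporter induction, medium peroxidase read by chemiluminescence and scored as per-plate z-score; higher values mean more reporter released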
Scale: z-score: higher = more reporter secreted into medium

z-score, replicate 1, by gene and reagent
CG15172: #1 0.28
CG3420: #1 0.39
CG13407: #1 0.38
GlyRS (Glycyl-tRNA synthetase): #1 0.13
ph-p (polyhomeotic proximal): #1 0.4
CG31817: #1 -0.16; #2 0.65; #3 -0.09
CG30197: #1 0.15
CenB1A (Centaurin beta 1A): #1 0.27
nonC (no-on-and-no-off transient C): #1 0.63; #2 0.19
Cpr76Bb (Cuticular protein 76Bb): #1 0.28; #2 0.96
CG43774 + CG43773: #1 0.29; #2 0.19
CG4982: #1 0.67
Hil (Hillarin): #1 0.25; #2 0.41
Mst27D (Male specific transcript 27D): #1 0.46
CG17652: #1 0.23
Cyp309a1 (Cytochrome P450 309a1): #1 0.41
Nprl2 (Nitrogen permease regulator-like 2): #1 0.39
Cpr11B (Cuticular protein 11B): #1 -0.11
CG3706: #1 0.52
CG5937: #1 0.18
Daao1 (D-amino acid oxidase 1): #1 0.15
CG5973: #1 0.11
mthl6 (methuselah-like 6): #1 0.21
CG7728: #1 0.23

Reformatted: entries from further up
{"Gene": "CenB1A (Centaurin beta 1A)", "dsRNA no.": 1, "z-score, replicate 1": 0.27}
{"Gene": "nonC (no-on-and-no-off transient C)", "dsRNA no.": 1, "z-score, replicate 1": 0.63}
{"Gene": "nonC (no-on-and-no-off transient C)", "dsRNA no.": 2, "z-score, replicate 1": 0.19}
{"Gene": "Cpr76Bb (Cuticular protein 76Bb)", "dsRNA no.": 1, "z-score, replicate 1": 0.28}
{"Gene": "Cpr76Bb (Cuticular protein 76Bb)", "dsRNA no.": 2, "z-score, replicate 1": 0.96}
{"Gene": "CG43774 + CG43773", "dsRNA no.": 1, "z-score, replicate 1": 0.29}
{"Gene": "CG43774 + CG43773", "dsRNA no.": 2, "z-score, replicate 1": 0.19}
{"Gene": "CG4982", "dsRNA no.": 1, "z-score, replicate 1": 0.67}

Next reagents follow:
z-score, replicate 1, by gene and reagent
CG10031: #1 -0.02
Hr78 (Hormone-receptor-like in 78): #1 0.09
CG9289: #1 0.4
CG8237: #1 0.51
CG4681: #1 0.07
CG5177: #1 -0.04
mGluR (metabotropic Glutamate Receptor): #1 0.22
CG15890: #1 0.35
RpL37-1 (Ribosomal protein L37-1): #1 0.32; #2 -1.64
dysc (dyschronic): #1 -4.58; #2 0.43; #3 -1.27; #4 1.13; #5 0.18
Cat (Catalase): #1 0.33
CPT2 (Carnitine palmitoyltransferase 2): #1 -0.26
bonsai: #1 0.08
Trmt61 (tRNA methyltransferase 61): #1 0.42
CG5611: #1 0.6
CG12289: #1 0.44
CG2100: #1 0.43
CG31342: #1 0.42; #2 0.3
CG14445: #1 0.38
sax (saxophone): #1 0.14
Pu (Punch): #1 0.02
Ack-like (Activated Cdc42 kinase-like): #1 0.24; #2 0.83
CG8765: #1 -1.63
CG6055: #1 0.35
Nepl11 (Neprilysin-like 11): #1 0.04
CG17350: #1 0.31
Obp57e (Odorant-binding protein 57e): #1 1.05
Polr2L (RNA polymerase II, I and III subunit L): #1 -0.39
Rpp21 (Ribonuclease P/MRP subunit p21): #1 -0.06
Pif1A (PFTAIRE-interacting factor 1A): #1 0.47; #2 0.36
Tom20 (Translocase of outer membrane 20): #1 0.19
CG33491 (retired record) + CG33496 (retired record) + CG33487 (retired record) + 1 more: #1 -0.77
CG11674: #1 0.23
CG34223: #1 0.24
Ccdc85: #1 -1.16
Galt (Galactose-1-phosphate uridylyltransferase): #1 0.37
rasp: #1 0.23
GMF (Glia maturation factor): #1 0.39
Ccp84Aa: #1 0.32
CG32365: #1 0.33; #2 -2.66; #3 -3.16
CG8157: #1 0.42; #2 0.81
